Laboratory results from PubChem BioAssay AID186 (DTP/NCI, 2004).
Values are animals surviving of animals treated; these mice carried no tumour. Counts of survivors are from the toxicity check (mostly the fifth day) where no day follows; animals may have died later. Schedule codes are those of the source, taken here to give the interval after Q, in days (D) or hours (H), and the number of doses after X. Some doses were run more than once; their values stand side by side, smallest first.

Tested on: B6D2F1 mice, nontumored toxicity test, survival
Experiment: NCI In Vivo Anticancer Drug Screen. Data for tumor model Nontumored Animals (Toxicity Test) in B6D2F1 (BDF1) mice
Conditions: vehicle: Klucel (hydroxypropylcellulose) (HPC)

Cc1cc(NCCCCCCNc2cc(C)nc3ccc(N)cc23)c2cc(N)ccc2n1 was tested. Which survivor count (dose: 4.0 mg/kg/injection, schedule: Q01DX009 (ip)) did it give?
The survivor count was 8 of 8.

And the survivor count (dose: 4.0 mg/kg/injection, schedule: Q03HX016 (ip))?
The survivor count was 8 of 8.

And the survivor count (dose: 4.0 mg/kg/injection, schedule: Q03HX024 (ip))?
The survivor count was 8 of 8.

And the survivor count (dose: 8.0 mg/kg/injection, schedule: Q01DX009 (ip))?
Its survivor count is 8 of 8.

What about the survivor count (dose: 8.0 mg/kg/injection, schedule: Q01DX009 (sc)) of the same molecule?
Its survivor count is 8 of 8.

And the survivor count (dose: 8.0 mg/kg/injection, schedule: Q03HX008 (ip))?
The survivor count was 8 of 8.

And the survivor count (dose: 8.0 mg/kg/injection, schedule: Q03HX016 (ip))?
Its survivor count is 8 of 8.

And the survivor count (dose: 8.0 mg/kg/injection, schedule: Q03HX024 (ip))?
The survivor count was 8 of 8.

What about the survivor count (dose: 16.0 mg/kg/injection, schedule: Q01DX009 (ip)) of the same molecule?
Its survivor count is 7 of 7 and 8 of 8.

And the survivor count (dose: 16.0 mg/kg/injection, schedule: Q01DX009 (sc))?
The survivor count was 8 of 8.

And the survivor count (dose: 16.0 mg/kg/injection, schedule: Q03HX008 (ip))?
Its survivor count is 8 of 8.

And the survivor count (dose: 16.0 mg/kg/injection, schedule: Q03HX016 (ip))?
Its survivor count is 8 of 8.

And the survivor count (dose: 16.0 mg/kg/injection, schedule: Q03HX024 (ip))?
Its survivor count is 8 of 8.

What about the survivor count (dose: 32.0 mg/kg/injection, schedule: Q01DX009 (ip)) of the same molecule?
The survivor count was 8 of 8.

What about the survivor count (dose: 32.0 mg/kg/injection, schedule: Q01DX009 (oral)) of the same molecule?
Its survivor count is 8 of 8.

And the survivor count (dose: 32.0 mg/kg/injection, schedule: Q01DX009 (sc))?
The survivor count was 8 of 8.

And the survivor count (dose: 32.0 mg/kg/injection, schedule: Q03HX008 (ip))?
Its survivor count is 8 of 8.

And the survivor count (dose: 32.0 mg/kg/injection, schedule: Q03HX016 (ip))?
The survivor count was 8 of 8.

And the survivor count (dose: 32.0 mg/kg/injection, schedule: Q03HX024 (ip))?
Its survivor count is 8 of 8.

What about the survivor count (dose: 32.0 mg/kg/injection, schedule: Q04DX003 (ip)) of the same molecule?
Its survivor count is 8 of 8.

What about the survivor count (dose: 32.0 mg/kg/injection, schedule: Q08DX002 (ip)) of the same molecule?
The survivor count was 8 of 8.

And the survivor count (dose: 64.0 mg/kg/injection, schedule: Q01DX001 (ip))?
The survivor count was 8 of 8.

What about the survivor count (dose: 64.0 mg/kg/injection, schedule: Q01DX009 (ip)) of the same molecule?
Its survivor count is 8 of 8.

What about the survivor count (dose: 64.0 mg/kg/injection, schedule: Q01DX009 (oral)) of the same molecule?
The survivor count was 8 of 8.

And the survivor count (dose: 64.0 mg/kg/injection, schedule: Q01DX009 (sc))?
Its survivor count is 8 of 8.

What about the survivor count (dose: 64.0 mg/kg/injection, schedule: Q03HX008 (ip)) of the same molecule?
Its survivor count is 8 of 8.

And the survivor count (dose: 64.0 mg/kg/injection, schedule: Q03HX016 (ip))?
Its survivor count is 8 of 8.

What about the survivor count (dose: 64.0 mg/kg/injection, schedule: Q03HX024 (ip)) of the same molecule?
Its survivor count is 8 of 8.

What about the survivor count (dose: 64.0 mg/kg/injection, schedule: Q04DX003 (ip)) of the same molecule?
Its survivor count is 8 of 8.

And the survivor count (dose: 64.0 mg/kg/injection, schedule: Q04DX003 (sc))?
Its survivor count is 8 of 8.

What about the survivor count (dose: 64.0 mg/kg/injection, schedule: Q08DX002 (ip)) of the same molecule?
Its survivor count is 8 of 8.

And the survivor count (dose: 128.0 mg/kg/injection, schedule: Q01DX001 (ip))?
The survivor count was 8 of 8.

What about the survivor count (dose: 128.0 mg/kg/injection, schedule: Q01DX009 (ip)) of the same molecule?
Its survivor count is 7 of 8 and 8 of 8.

What about the survivor count (dose: 128.0 mg/kg/injection, schedule: Q01DX009 (oral)) of the same molecule?
The survivor count was 8 of 8.

And the survivor count (dose: 128.0 mg/kg/injection, schedule: Q01DX009 (sc))?
Its survivor count is 8 of 8.

What about the survivor count (dose: 128.0 mg/kg/injection, schedule: Q03HX008 (ip)) of the same molecule?
The survivor count was 8 of 8.

And the survivor count (dose: 128.0 mg/kg/injection, schedule: Q03HX016 (ip))?
Its survivor count is 8 of 8.

What about the survivor count (dose: 128.0 mg/kg/injection, schedule: Q03HX024 (ip)) of the same molecule?
The survivor count was 8 of 8.

What about the survivor count (dose: 128.0 mg/kg/injection, schedule: Q04DX003 (ip)) of the same molecule?
Its survivor count is 8 of 8.

And the survivor count (dose: 128.0 mg/kg/injection, schedule: Q04DX003 (sc))?
Its survivor count is 8 of 8.

And the survivor count (dose: 128.0 mg/kg/injection, schedule: Q08DX002 (ip))?
The survivor count was 8 of 8.

And the survivor count (dose: 256.0 mg/kg/injection, schedule: Q01DX001 (ip))?
Its survivor count is 8 of 8.

What about the survivor count (dose: 256.0 mg/kg/injection, schedule: Q01DX009 (ip)) of the same molecule?
Its survivor count is 3 of 8.

And the survivor count (dose: 256.0 mg/kg/injection, schedule: Q01DX009 (oral))?
Its survivor count is 8 of 8.

What about the survivor count (dose: 256.0 mg/kg/injection, schedule: Q01DX009 (sc)) of the same molecule?
Its survivor count is 8 of 8.

What about the survivor count (dose: 256.0 mg/kg/injection, schedule: Q04DX003 (ip)) of the same molecule?
Its survivor count is 8 of 8.

What about the survivor count (dose: 256.0 mg/kg/injection, schedule: Q04DX003 (oral)) of the same molecule?
Its survivor count is 8 of 8.

What about the survivor count (dose: 256.0 mg/kg/injection, schedule: Q04DX003 (sc)) of the same molecule?
Its survivor count is 8 of 8.

And the survivor count (dose: 256.0 mg/kg/injection, schedule: Q08DX002 (ip))?
Its survivor count is 8 of 8.

What about the survivor count (dose: 512.0 mg/kg/injection, schedule: Q01DX001 (ip)) of the same molecule?
Its survivor count is 8 of 8.

And the survivor count (dose: 512.0 mg/kg/injection, schedule: Q01DX009 (oral))?
Its survivor count is 8 of 8.

And the survivor count (dose: 512.0 mg/kg/injection, schedule: Q04DX003 (ip))?
Its survivor count is 8 of 8.

What about the survivor count (dose: 512.0 mg/kg/injection, schedule: Q04DX003 (oral)) of the same molecule?
The survivor count was 8 of 8.

What about the survivor count (dose: 512.0 mg/kg/injection, schedule: Q04DX003 (sc)) of the same molecule?
The survivor count was 8 of 8.

And the survivor count (dose: 512.0 mg/kg/injection, schedule: Q08DX002 (ip))?
Its survivor count is 8 of 8.

What about the survivor count (dose: 1024.0 mg/kg/injection, schedule: Q01DX001 (ip)) of the same molecule?
The survivor count was 8 of 8.

What about the survivor count (dose: 1024.0 mg/kg/injection, schedule: Q01DX009 (oral)) of the same molecule?
The survivor count was 8 of 8.

And the survivor count (dose: 1024.0 mg/kg/injection, schedule: Q04DX003 (ip))?
The survivor count was 8 of 8.

And the survivor count (dose: 1024.0 mg/kg/injection, schedule: Q04DX003 (oral))?
The survivor count was 8 of 8.

And the survivor count (dose: 1024.0 mg/kg/injection, schedule: Q04DX003 (sc))?
The survivor count was 8 of 8.

What about the survivor count (dose: 1024.0 mg/kg/injection, schedule: Q08DX002 (ip)) of the same molecule?
The survivor count was 8 of 8.

And the survivor count (dose: 2048.0 mg/kg/injection, schedule: Q04DX003 (oral))?
Its survivor count is 8 of 8.
